Assay results published in patent publication US9714240B2 (PharmAkea, Inc., priority 2013, dated 2017).
Structures were worked out from names or drawings and are uncertain.

Target: human autotaxin (Homo sapiens, UniProt Q13822)
Assay: Human Autotaxin Assay (choline release from LPC)
Conditions: ATX in concentrated conditioned media from Hep3B cells, substrate LPC 14:0 100 uM, absorbance at 555 nm
Protocol: ATX activity is assayed in concentrated conditioned media from Hep3B human hepatocellular carcinoma cells by measuring the amount of choline released from the substrate, lysophosphatidylcholine (LPC) as it is cleaved to LPA. Conditioned media is collected from confluent Hep3B cells and concentrated 20-fold using Centriprep-30 filter devices (Millipore). To assay for autotaxin inhibition, 10-20 μL of the concentrated conditioned media is incubated with 2.5 μL of a test compound in DMSO and 72.5-82.5 μL lyso-PLD buffer (100 mM Tris pH 9, 500 mM NaCl, 5 mM MgCl2, 5 mM CaCl2, 0.05% Triton X-100 in the presence or absence of 0.2% fatty-acid-free human serum albumin) for 15 min at 37° C. After the 15 min incubation, 5 ul of 2 mM LPC (14:0; Avanti Polar Lipids Cat#855575C) diluted in lyso-PLD buffer is added for a final concentration of 100 uM and the incubation continues for 1.5-3 hours at 37° C. 100 μl of a color mix containing 4.5 mM 4-aminoantipyrine, 2.7 mM N-ethyl-N-(2-hydroxy-3-sulfopropyl)-m-toluidine, 21 units/ml horseradish peroxidase and 3 units/ml choline oxidase in 50 mM Tris, pH 8, 4.5 mM MgCl2 is added and the incubation continued for 15 minutes at room temperature before reading the absorbance at 555 nm.

Cc1c(/C=C(\C#N)c2ccc(C(=O)O)cc2)c2ccccc2n1Cc1ccccc1F
IC50: > 10 µM
